The record followed here is US20220396632A1.

Chains of the proteins cited; added tags and fusions are not shown. Lines headed by an entry give the natural chain unless they say otherwise; changes in a name come on top.
UniProt Q14242: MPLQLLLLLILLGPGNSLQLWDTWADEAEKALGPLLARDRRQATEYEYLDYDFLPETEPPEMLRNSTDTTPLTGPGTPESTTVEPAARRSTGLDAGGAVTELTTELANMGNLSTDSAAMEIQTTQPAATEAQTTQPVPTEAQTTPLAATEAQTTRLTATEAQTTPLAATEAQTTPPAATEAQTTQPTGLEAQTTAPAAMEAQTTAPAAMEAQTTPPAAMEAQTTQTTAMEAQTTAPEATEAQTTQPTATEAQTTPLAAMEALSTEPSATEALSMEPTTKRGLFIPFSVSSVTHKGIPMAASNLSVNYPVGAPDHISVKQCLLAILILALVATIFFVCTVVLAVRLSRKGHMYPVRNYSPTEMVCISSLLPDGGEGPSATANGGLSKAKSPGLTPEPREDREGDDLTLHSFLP

Results are given in words; binding and its absence hold for the method and conditions named. Some results given as binding are weak or reduced against the parent protein; the word gives no strength.

Assay [1] deals with T1, 260-280.
T1 sequence (peptide, N-terminal acetyl; C-terminal Lys-biotin): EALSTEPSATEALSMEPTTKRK
Nature of the assay: ELISA, streptavidin-immobilized biotin peptide [cont.].

The target in assay [2] is T2, Biotin PSGL-1(56-70) peptide (human).
T2 sequence (peptide, N-terminal acetyl; C-terminal Lys-biotin): ETEPPEMLRNSTDTTGK
The assay is described as above.

For the next assay, the target named is T3, 131-150.
T3 sequence (peptide, N-terminal acetyl; C-terminal Lys-biotin): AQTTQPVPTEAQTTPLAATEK
The description is as above.

The target of assay [3] is T4, PSGL-1(90-110).
T4 sequence (peptide, N-terminal acetyl; C-terminal Lys-biotin): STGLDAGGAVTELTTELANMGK
The assay is described as above.

Assay [4] concerns the target T5, 245-265.
T5 sequence (peptide, N-terminal acetyl; C-terminal Lys-biotin): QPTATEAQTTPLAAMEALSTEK
The description is as above.

Assay [5] addresses T6, 205-230.
T6 sequence (peptide, N-terminal acetyl; C-terminal Lys-biotin): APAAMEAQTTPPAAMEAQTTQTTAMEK
The description is as above.

The target in assay [6] is T7, 275-295.
T7 sequence (peptide, N-terminal acetyl; C-terminal Lys-biotin): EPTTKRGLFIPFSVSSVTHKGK
Described as above.

For assay [7], the target named is T8, PSGL-1(305-320).
T8 sequence (peptide, N-terminal acetyl; C-terminal Lys-biotin): VNYPVGAPDHISVKQSK
The assay is described as above.

Assay [8] deals with T9, PSGL-1(120-140).
T9 sequence (peptide, N-terminal acetyl; C-terminal Lys-biotin): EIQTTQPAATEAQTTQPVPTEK
Described as above.

Assay [9] addresses T10, 225-250.
T10 sequence (peptide, N-terminal acetyl; C-terminal Lys-biotin): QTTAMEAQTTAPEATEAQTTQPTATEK
The assay is described as above.

The target of assay [10] is T11, 165-190.
T11 sequence (peptide, N-terminal acetyl; C-terminal Lys-biotin): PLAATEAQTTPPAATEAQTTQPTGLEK
The assay is described as above.

In assay [11] the target is T12, 185-210.
T12 sequence (peptide, N-terminal acetyl; C-terminal Lys-biotin): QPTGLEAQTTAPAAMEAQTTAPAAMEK
The assay is described as above.

For assay [12], the target named is T13, 63-80.
T13 sequence (peptide, N-terminal acetyl; C-terminal Lys-biotin): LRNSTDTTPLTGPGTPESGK
Described as above.

The target in assay [13] is T14, 75-95.
T14 sequence (peptide, N-terminal acetyl; C-terminal Lys-biotin): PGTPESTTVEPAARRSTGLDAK
The assay is described as above.

For assay [14], the target named is T15, 145-170.
T15 sequence (peptide, N-terminal acetyl; C-terminal Lys-biotin): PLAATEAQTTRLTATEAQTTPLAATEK
Described as above.

The target of assay [15] is T16, PSGL-1(49-56)-Biotin (human) (UniProt Q14242).
T16 sequence (peptide, C-terminal biotin, looked up): LDYDFLPE
Kind of assay: ELISA, plate-immobilized biotin peptide.

The target of assay [16] is T1, 260-280. Nature of the assay: ELISA, streptavidin-immobilized biotin peptide.
The target of assay [17] is T2, Biotin PSGL-1(56-70) peptide (human). Nature of the assay: ELISA, streptavidin-immobilized biotin peptide. On the technique in general: An ELISA detects its analyte on a solid surface through an enzyme-linked reagent.
In assay [18] the target is T4, PSGL-1(90-110). Nature of the assay: ELISA, streptavidin-immobilized biotin peptide.
For assay [19], the target named is T5, 245-265. Kind of assay: ELISA, streptavidin-immobilized biotin peptide.
The target of assay [20] is T6, 205-230. Nature of the assay: ELISA, streptavidin-immobilized biotin peptide.
Assay [21] deals with T7, 275-295. Nature of the assay: ELISA, streptavidin-immobilized biotin peptide.
Assay [22] deals with T8, PSGL-1(305-320). Nature of the assay: ELISA, streptavidin-immobilized biotin peptide.
Assay [23] addresses T9, PSGL-1(120-140). Nature of the assay: ELISA, streptavidin-immobilized biotin peptide.
The target of assay [24] is T10, 225-250. Kind of assay: ELISA, streptavidin-immobilized biotin peptide.
Assay [25] concerns the target T11, 165-190. Kind of assay: ELISA, streptavidin-immobilized biotin peptide.
Assay [26] deals with T12, 185-210. Kind of assay: ELISA, streptavidin-immobilized biotin peptide.
The target in assay [27] is T13, 63-80. Kind of assay: ELISA, streptavidin-immobilized biotin peptide.
For assay [28], the target named is T14, 75-95. Kind of assay: ELISA, streptavidin-immobilized biotin peptide.
Assay [29] concerns the target T15, 145-170. Kind of assay: ELISA, streptavidin-immobilized biotin peptide.

B1: 18F02 (antibody, V domains shown)
VH: QVQLQQPGAELVKPGASVKLSCKASGYTFTSYWMHWVKQRPGQGLEWIGMIHPNSGRTNYNEKFKSKATLTVDKSSSTAYMQLSSLTSEDSAVYYCARSDYWGQGTTLTVSS
VL: DIVMTQAAFSNPVTLGTSASISCRSSKSLLHSDGITYLYWFLQRPGQSPQLLIYRMSNLASGVPDRFSGSGSGTDFTLRISRVEAEDVGVYYCAQMLEFPRTFGGGTKLEIK
With B1, the binding result (with 260-280 [1]; in assay [2]; in the assay with 131-150; with PSGL-1(90-110) [3]; with 245-265 [4]; with 205-230 [5]) was “no binding (tested: 10 nM)” in each case. The binding result with 275-295 [6] is recorded as “no binding (tested: 10 nM)”; with PSGL-1(305-320) [7] it was “no binding (tested: 10 nM)”; with PSGL-1(120-140) [8] it was “no binding (tested: Log M -7.7 (about 20 nM))”; in the assay with 225-250 [9], “no binding (tested: 10 nM)”; with 165-190 [10], “no binding (tested: 10 nM)”; in the assay with 185-210 [11] it was “no binding (tested: 10 nM)”. Further, the binding entry was “no binding (tested: 10 nM)” in the assay with 63-80 [12], “no binding (tested: 10 nM)” with 75-95 [13], “no binding (tested: 10 nM)” in the assay with 145-170 [14] and “binds” in [15].

B2: 18F17 (antibody, V domains shown)
VH: QVTLKESGPGILQPSQTLSLTCSFSGFSLSTFGMGVGWIRQPSGKGLEWLAHIWWDDDKYYNPALKSRLTISKDTSKNQVFLKIANVDTADTATYYCAIYYDYGVGFDYWGQGTTLTVSS
VL: DIVMTQAAPSVPVTPGESVSISCRSSKSLLHSNGYTFLYWFLQRPGQSPQLLIYRMSNLASGVPDRFSGSGSGTAFTLRISRVEAEDVGVYYCMQHLEYPFTFGTGTKLEIK
In the case of B2, the binding result (with 260-280 [16]; in assay [17]; with PSGL-1(90-110) [18]; with 245-265 [19]; in the assay with 205-230 [20]; in the assay with 275-295 [21]) was “no binding (tested: 10 nM)” in each case. For the same molecule, the binding entry with PSGL-1(305-320) [22] is “no binding (tested: Log M -7.4 (about 40 nM))”; with PSGL-1(120-140) [23] it was “no binding (tested: 10 nM)”; with 225-250 [24] it was “no binding (tested: 10 nM)”; with 165-190 [25], “no binding (tested: 10 nM)”; in the assay with 185-210 [26] it was “no binding (tested: 10 nM)”; in the assay with 63-80 [27], “no binding (tested: 10 nM)”. Further, the binding result with 75-95 [28] and with 145-170 [29] was “no binding (tested: 10 nM)” throughout.

B3: 43B6 (antibody, V domains shown)
VH: EVQLQQSGPDLVKPGALVKISCKASGYSFTAYYIHWVKQSHGKSLEWIGRVNPNTGGTSYNPKFKGKAILNVDKSSSTAYMELRSLTSEDSAVYYCARSGSPYYRYDDWGQGTTLTVSS
VL: ENVLTQSPAIMSASPGEKVTMTCRASSTVNSTYLHWFQQKSGASPKLWIYGSSNLASGVPARFSGSGSGTSYSLTISSVEAEDAATYYCQQYSGYPLTFGAGTTLELK
Take B3: in assay [15], the binding entry is “binds”.

B4: 9F9 (antibody, V domains shown)
VH: EVQLVETGGGLVQPKGSLKLSCAASGFTFNTNAMNWVRQAPGKGLEWVARIRSKSNNYATYYADSVKDRFTISRDDTQSMIYLQMNNLKTEDTGMYYCVRGGSYWYFDVWGAGTTVTVSS
VL: DVLMTQTPLSLPVSLGDQASISCRSSQSIVNSNGNTYLEWYLQKPGQSPKLLIYKVSNRFSGVPDRFSGSGSGTDFTLKISRVEAEDLGVYYCFQGSHVPWTFGGGTKLEIK
For B4, the binding result in assay [15] was “binds”.
